From patent US9642847B2, “Combinational compositions and methods for treatment of cancer” (ArQule, Inc., priority 2009, dated 2017)
Several values for one entry are separate records, joined by “and”; a condition that tells them apart may be missing. Equal values may be shown once. The name of at least one read-out is uncertain.

Tested on: HT29 colon cancer cells
Test: 72 h MTT proliferation assay, equipotent fixed-ratio combination, isobologram analysis (Calcusyn)
Format: cell-based, human
Conditions: single agents and fixed-ratio combination
Text: Erlotinib is an inhibitor of the epidermal growth factor receptor and is indicated for the treatment of patients with locally advanced or metastatic non-small cell lung cancer after failure of at least one prior chemotherapy regimen, and is indicated for the first-line treatment of patients with locally advanced, unresectable or metastatic pancreatic cancer.
Gefitinib is an inhibitor of the EGF receptor.

Compound: O=C1NC(=O)[C@@H](c2cn3c4c(cccc24)CCC3)[C@@H]1c1c[nH]c2ccccc12 (single isomer, unassigned) [Agent A]
- IC50: 116 nM and 118 nM
